Assay results taken from article doi:10.1101/093054 (bioRxiv, 2016).
No constants are given. Whether binding was seen depends on the method and setting. Some binding calls cover weakened binding; strength is not graded here. Where a sequence is shown, tags or fusion partners need not be part of it.

Target: T1, SPD-5::TagRFP (C. elegans), P91349
T1 chain: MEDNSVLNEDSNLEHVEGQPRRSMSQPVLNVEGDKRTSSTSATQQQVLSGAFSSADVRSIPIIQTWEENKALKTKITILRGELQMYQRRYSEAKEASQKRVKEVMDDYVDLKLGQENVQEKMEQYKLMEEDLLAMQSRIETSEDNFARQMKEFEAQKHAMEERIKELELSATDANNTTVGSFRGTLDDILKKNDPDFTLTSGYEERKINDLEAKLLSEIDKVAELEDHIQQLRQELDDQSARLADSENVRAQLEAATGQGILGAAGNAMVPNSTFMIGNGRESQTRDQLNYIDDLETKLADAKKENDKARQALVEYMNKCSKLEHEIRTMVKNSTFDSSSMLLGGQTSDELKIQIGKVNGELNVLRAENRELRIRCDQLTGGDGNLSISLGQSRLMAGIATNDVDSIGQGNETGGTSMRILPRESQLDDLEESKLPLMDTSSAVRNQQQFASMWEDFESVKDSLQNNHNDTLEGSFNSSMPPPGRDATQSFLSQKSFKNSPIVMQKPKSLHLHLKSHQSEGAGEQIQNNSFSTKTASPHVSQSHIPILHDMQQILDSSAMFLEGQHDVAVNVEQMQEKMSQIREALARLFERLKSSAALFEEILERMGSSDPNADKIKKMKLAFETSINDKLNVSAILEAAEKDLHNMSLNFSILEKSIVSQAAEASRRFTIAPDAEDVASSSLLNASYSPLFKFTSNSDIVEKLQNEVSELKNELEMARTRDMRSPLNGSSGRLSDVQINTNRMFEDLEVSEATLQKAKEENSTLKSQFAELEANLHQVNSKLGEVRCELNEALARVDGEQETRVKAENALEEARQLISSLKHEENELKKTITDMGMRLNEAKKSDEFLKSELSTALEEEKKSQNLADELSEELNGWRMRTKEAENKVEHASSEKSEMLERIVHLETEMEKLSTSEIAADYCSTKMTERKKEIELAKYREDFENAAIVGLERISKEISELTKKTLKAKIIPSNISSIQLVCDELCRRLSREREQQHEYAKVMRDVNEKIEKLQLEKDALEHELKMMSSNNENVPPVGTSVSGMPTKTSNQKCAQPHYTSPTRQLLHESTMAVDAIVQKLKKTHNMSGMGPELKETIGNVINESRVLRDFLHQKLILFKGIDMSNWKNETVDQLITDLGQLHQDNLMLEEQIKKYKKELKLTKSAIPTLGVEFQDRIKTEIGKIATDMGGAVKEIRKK
Assay: fluorescence microscopy of droplets
Conditions: remark: other sources report otherwise

binding: binds
B1: SPD-5::GFP, P91349 1-1198 (protein)
chain: T1 chain
